± gives the standard deviation of the averaged measurements. Most entries show no effect beyond the scatter of the controls.
How the values were obtained:
Assay in all cases: level (log10 ratio to DMSO vehicle control); higher = higher biomarker level / cell amount than vehicle control
Perfluorononanoic acid = compound: O=C(O)C(F)(F)C(F)(F)C(F)(F)C(F)(F)C(F)(F)C(F)(F)C(F)(F)C(F)(F)F [Perfluorononanoic acid]; settings: 2200 nM; in DMSO
Protocol: (§1)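 BioMAP Diversity Plus panel of 12 human primary cell co-culture systems (3C, 4H, LPS, SAg, BT, BF4T, BE3C, CASM3C, HDF3CGF, KF3CT, MyoF, Mphg). Compounds were added 1 h before stimulation and left for 24 h (MyoF 48 h; BT 72 h for soluble read-outs or 6 d for IgG). Biomarkers were read by ELISA, cytotoxicity by SRB, PBMC viability and proliferation by Alamar Blue. Each well value was divided by the mean of 8 DMSO control wells on the same plate and log10 transformed; duplicate blinded samples were tested at 4 concentrations.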

[1] = compound: C=CC(=O)OCC(F)(F)C(F)(F)C(F)(F)C(F)(F)C(F)(F)C(F)(F)C(F)(F)C(F)F [1H,1H,9H-Perfluorononyl acrylate]; settings: 2200 nM; in DMSO
Protocol: as §1

[2] = compound: O=C(CC(=O)C(F)(F)C(F)(F)C(F)(F)F)c1cccs1 [(Perfluorobutyryl)-2-thenoylmethane]; settings: 2200 nM; in DMSO
Protocol: as §1

[3] = compound: OCC(F)(F)OC(F)(F)C(F)(F)OC(F)(F)C(F)(F)OC(F)(F)CO [1H,1H,11H,11H-Perfluorotetraethylene glycol]; settings: 2200 nM; in DMSO
Protocol: as §1

[4] = compound: O=C(O)C(F)(F)OC(F)(F)C(F)(F)OC(F)(F)C(F)(F)OC(F)(F)C(F)(F)C(F)(F)C(F)(F)F [Perfluoro-3,6,9-trioxatridecanoic acid]; settings: 2200 nM; in DMSO
Protocol: as §1

[5] = compound: OCC(F)(F)C(F)(F)C(F)(F)C(F)(F)C(F)(F)C(F)(F)C(F)(F)C(F)(F)CO [1H,1H,10H,10H-Perfluorodecane-1,10-diol]; settings: 2200 nM; in DMSO
Protocol: as §1

Perfluorooctanoic acid = compound: O=C(O)C(F)(F)C(F)(F)C(F)(F)C(F)(F)C(F)(F)C(F)(F)C(F)(F)F [Perfluorooctanoic acid]; settings: 2200 nM; in DMSO
Protocol: as §1

[6] = compound: CCOC(=O)CC(=O)C(F)(F)C(F)(F)F [Ethyl pentafluoropropionyl acetate]; settings: 2200 nM; in DMSO
Protocol: as §1

[7] = compound: O=C(O)CCC(F)(C(F)(F)F)C(F)(F)F [4,4-bis(Trifluoromethyl)-4-fluoropropanoic acid]; settings: 2200 nM; in DMSO
Protocol: as §1

[8] = compound: O=C(O)C(F)(F)OC(F)(F)C(F)(F)OC(F)(F)F [Perfluoro-3,6-dioxaheptanoic acid]; settings: 2200 nM; in DMSO
Protocol: as §1

[9] = compound: O=C(O)C(F)(F)C(F)(F)C(F)(F)C(F)(F)C(F)(F)C(F)(F)C(F)(F)F [Ammonium perfluorooctanoate]; settings: 2200 nM; in DMSO
Protocol: as §1

Perfluorodecanoic acid = compound: O=C(O)C(F)(F)C(F)(F)C(F)(F)C(F)(F)C(F)(F)C(F)(F)C(F)(F)C(F)(F)C(F)(F)F [Perfluorodecanoic acid]; settings: in DMSO
Protocol: as §1

[10] = compound: FC(F)(F)C(F)(F)C(F)(F)C(F)(F)C(F)(F)C(F)(F)C(F)(F)C(F)(F)CCS [2-(Perfluorooctyl)ethanthiol]; settings: in DMSO
Protocol: as §1

Perfluorooctanamidine = compound: N=C(N)C(F)(F)C(F)(F)C(F)(F)C(F)(F)C(F)(F)C(F)(F)C(F)(F)F [Perfluorooctanamidine]; settings: in DMSO
Protocol: as §1

| Test System | level (log10) (Perfluorononanoic acid) | level (log10) [1] | level (log10) [2] | level (log10) [3] | level (log10) [4] | level (log10) [5] | level (log10) (Perfluorooctanoic acid) | level (log10) [6] | level (log10) [7] | level (log10) [8] | level (log10) [9] | level (log10) (Perfluorodecanoic acid; 2200 nM) | level (log10) (Perfluorodecanoic acid; 6700 nM) | level (log10) (Perfluorodecanoic acid; 20000 nM) | level (log10) ([10]; 740 nM) | level (log10) ([10]; 2200 nM) | level (log10) (Perfluorooctanamidine; 2200 nM) | level (log10) (Perfluorooctanamidine; 6700 nM) | level (log10) (Perfluorooctanamidine; 20000 nM) | level (log10) (Perfluorooctanamidine; 60000 nM) |
| --- | --- | --- | --- | --- | --- | --- | --- | --- | --- | --- | --- | --- | --- | --- | --- | --- | --- | --- | --- | --- |
| lMphg:SRB-Mphg | -0.0125 ± 0.049 | 0.0125 ± 0.05 | -0.0015 ± 0.035 | 0.0085 ± 0.019 | 0.008 ± 0.024 | 0.018 ± 0.061 | 0.0135 ± 0.026 | 0.0005 ± 0.0064 | 0.0255 ± 0.0021 | 0.0125 ± 0.039 | 0.003 ± 0.0042 | 0.0095 ± 0.019 | 0.0065 ± 0.00071 | -0.005 ± 0.0085 | 0.011 ± 0.05 | 0.0035 ± 0.026 | 0.017 ± 0.014 | 0.0145 ± 0.011 | 0.009 ± 0.014 | 0.007 |
| SAg:Proliferation | -0.0205 ± 0.018 | 0.0085 ± 0.013 | -0.089 | -0.0195 ± 0.081 | 0.046 ± 0.014 | -0.0215 ± 0.029 | 0.0365 ± 0.00071 | -0.012 ± 0.061 | 0.05 ± 0.064 | -0.0045 ± 0.022 | 0.0195 ± 0.012 | 0.0065 ± 0.029 | 0.0435 ± 0.019 | 0.0255 ± 0.032 | 0.0635 ± 0.011 | 0.0235 ± 0.021 | 0.044 ± 0.023 | 0.0195 ± 0.011 | 0 ± 0.048 | -0.565 |
| HDF3CGF:CCL2/MCP-1 | -0.0025 ± 0.06 | -0.026 ± 0.03 | 0.0305 ± 0.0092 | 0.0035 ± 0.023 | -0.001 ± 0.0099 | -0.015 ± 0.014 | -0.043 ± 0.02 | -0.009 ± 0.02 | 0.004 ± 0.023 | -0.0065 ± 0.03 | -0.0415 ± 0.0035 | -0.019 ± 0.02 | -0.0595 ± 0.0078 | 0.042 ± 0.034 | -0.0055 ± 0.012 | -0.0155 ± 0.0078 | 0.0085 ± 0.037 | -0.0075 ± 0.0035 | -0.005 ± 0.018 | -0.068 |
| BE3C:HLA-DR | -0.036 ± 0.027 | -0.009 ± 0.017 | -0.0035 ± 0.012 | -0.0035 ± 0.019 | -0.019 ± 0.011 | -0.0095 ± 0.016 | 0.009 ± 0.044 | -0.011 ± 0.025 | 0 ± 0.0057 | -0.0125 ± 0.057 | -0.016 ± 0.0042 | -0.015 | -0.0525 ± 0.022 | -0.842 ± 0.04 | 0.001 ± 0.0085 | -0.0055 ± 0.0078 | 0.01 ± 0.021 | -0.0015 ± 0.018 | -0.003 ± 0.021 | -0.01 |
| HDF3CGF:M-CSF | 0.0135 ± 0.043 | -0.007 ± 0.021 | 0.0295 ± 0.0078 | 0.023 ± 0.12 | 0.023 ± 0.014 | 0.016 ± 0.069 | 0.0045 ± 0.0078 | 0.021 ± 0.048 | -0.056 ± 0.057 | -0.0215 ± 0.022 | 0.0045 ± 0.00071 | -0.001 ± 0.031 | 0.023 ± 0.0057 | -0.275 ± 0.018 | -0.002 ± 0.0099 | -0.007 ± 0.011 | -0.005 ± 0.014 | -0.017 ± 0.014 | -0.0485 ± 0.018 | -0.177 |
| 4H:CCL26/Eotaxin-3 | 0.007 ± 0.013 | -0.0225 ± 0.021 | 0.0115 ± 0.04 | -0.0045 ± 0.029 | 0.0035 ± 0.0092 | 0.0185 ± 0.025 | 0.0605 ± 0.018 | -0.023 ± 0.018 | -0.0035 ± 0.013 | 0.0005 ± 0.016 | -0.001 ± 0.0085 | 0.0075 ± 0.018 | -0.0085 ± 0.011 | -0.0305 ± 0.011 | -0.006 ± 0.064 | 0.005 ± 0.038 | 0 ± 0.042 | -0.006 ± 0.0042 | -0.033 ± 0.0042 | -0.118 |
| BF4T:Keratin 8/18 | -0.0255 ± 0.028 | 0.0015 ± 0.016 | -0.032 ± 0.021 | 0.012 ± 0.0099 | 0.022 ± 0.02 | 0.024 ± 0.024 | 0.012 ± 0.028 | -0.0085 ± 0.018 | 0.0015 ± 0.046 | -0.0125 ± 0.049 | 0.023 ± 0.0028 | 0.0275 ± 0.0021 | 0.011 ± 0.0028 | -0.335 ± 0.042 | -0.055 ± 0.023 | -0.0235 ± 0.036 | 0.012 ± 0.018 | -0.012 ± 0.0057 | -0.0165 ± 0.016 | 0.039 |
| CASM3C:M-CSF | -0.058 ± 0.0014 | 0.029 ± 0.035 | 0.025 ± 0.031 | 0.0085 ± 0.064 | 0.015 ± 0.03 | 0.016 ± 0.042 | 0.0045 ± 0.036 | -0.0065 ± 0.019 | -0.0245 ± 0.042 | -0.011 ± 0.0042 | 0.0265 ± 0.013 | 0.0315 ± 0.0064 | 0.0145 ± 0.0078 | 0.0345 ± 0.019 | 0.0195 ± 0.07 | -0.0055 ± 0.04 | 0.03 ± 0.034 | -0.0095 ± 0.021 | -0.025 ± 0.028 | 0.034 |
| LPS:CD62E/E-Selectin | -0.0075 ± 0.012 | -0.0115 ± 0.0064 | -0.0405 ± 0.033 | 0.013 ± 0.054 | -0.0105 ± 0.0021 | -0.065 ± 0.072 | 0.0105 ± 0.019 | 0.022 ± 0.059 | 0.008 ± 0.0057 | -0.0035 ± 0.018 | -0.004 ± 0.0085 | -0.0245 ± 0.00071 | -0.0115 ± 0.00071 | -0.0205 ± 0.015 | -0.001 ± 0.02 | 0.0075 ± 0.036 | 0.0055 ± 0.0092 | 0.0135 ± 0.00071 | -0.009 ± 0.013 | 0.019 |
| MyoF:Decorin | 0.0095 ± 0.013 | -0.0045 ± 0.04 | 0.0295 ± 0.04 | -0.008 ± 0.011 | 0.031 ± 0.064 | 0.018 ± 0.0042 | -0.0045 ± 0.016 | -0.003 ± 0.031 | -0.022 ± 0.017 | 0.009 ± 0.013 | 0.009 ± 0.0042 | 0.017 ± 0.024 | 0.0055 ± 0.0064 | -0.071 ± 0.018 | -0.0175 ± 0.026 | -0.01 ± 0.045 | 0.015 ± 0.044 | 0.004 ± 0.0099 | 0.0055 ± 0.013 | 0.07 |
| MyoF:Collagen III | -0.0215 ± 0.013 | -0.001 ± 0.051 | -0.025 ± 0.0014 | -0.0015 ± 0.016 | -0.007 ± 0.048 | -0.0025 ± 0.032 | 0.003 ± 0.011 | -0.02 ± 0.018 | -0.022 ± 0.021 | 0.0015 ± 0.012 | -0.01 ± 0.018 | -0.015 ± 0.011 | -0.028 ± 0.03 | -0.36 ± 0.066 | 0.0025 ± 0.0092 | -0.0095 ± 0.028 | 0.0105 ± 0.016 | -0.0045 ± 0.015 | 0.003 ± 0.017 | 0.006 |
| 3C:CD141/Thrombomodulin | -0.042 ± 0.024 | -0.0315 ± 0.044 | 0.0115 ± 0.029 | -0.021 ± 0.033 | 0.008 ± 0.0014 | -0.0205 ± 0.016 | 0.0305 ± 0.046 | 0.005 ± 0.038 | 0.0035 ± 0.064 | -0.014 ± 0.031 | 0.0085 ± 0.005 | -0.024 ± 0.034 | -0.019 ± 0.025 | -0.0445 ± 0.012 | -0.021 ± 0.034 | 0.004 ± 0.0014 | -0.006 ± 0.023 | -0.015 ± 0.031 | -0.021 ± 0.024 | -0.013 |

Some values from the entries so far.
Value of LPS:CD62E/E-Selectin under level (log10) (Perfluorodecanoic acid; 2200 nM): -0.0245 ± 0.00071
Value of CASM3C:M-CSF under level (log10) [1]: 0.029 ± 0.035

Reference: the supplement of paper PMC10331698
